Results are given in words; binding and its absence hold for the method and conditions named.
Key:
Test in all cases: two-hybrid; directed Y2H, ProQuest Two-Hybrid System (pDEST22, pDEST32); NF-YB or NF-YC constructs fused to DBD, bZIP proteins fused to AD; beta-galactosidase (X-Gal) reporter, similar activation seen for two other reporters
[1] = molecular target: NF-YB10, full length (Arabidopsis thaliana (Col-0 cDNA)) (UniProt Q67XJ2)
[2] = molecular target: NF-YB10 N-terminal region (B10N, AA 1–22) (Arabidopsis thaliana (Col-0 cDNA)) (UniProt Q67XJ2)
[3] = molecular target: NF-YB2 from the first AA of the HFM through the end (B2HFM+B2C, AA 26–190) (Arabidopsis thaliana (Col-0 cDNA)) (UniProt Q9FGJ3)
[4] = molecular target: NF-YB2 from the start through the HFM (B2N+B2HFM, AA 1–121) (Arabidopsis thaliana (Col-0 cDNA)) (UniProt Q9FGJ3)
[5] = molecular target: NF-YB10 C-terminal region (B10C, AA 123–228) (Arabidopsis thaliana (Col-0 cDNA))

Protein sequences, listed by entry. Tags and fused reporters are not part of them. Lines headed by an entry give the natural chain unless they say otherwise; changes in a name come on top.
UniProt Q67XJ2: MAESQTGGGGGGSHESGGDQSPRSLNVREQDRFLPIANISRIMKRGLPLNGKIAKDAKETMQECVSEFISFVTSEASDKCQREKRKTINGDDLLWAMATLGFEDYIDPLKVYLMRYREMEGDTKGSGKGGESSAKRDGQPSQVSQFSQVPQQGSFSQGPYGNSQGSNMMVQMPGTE
UniProt Q9FGJ3: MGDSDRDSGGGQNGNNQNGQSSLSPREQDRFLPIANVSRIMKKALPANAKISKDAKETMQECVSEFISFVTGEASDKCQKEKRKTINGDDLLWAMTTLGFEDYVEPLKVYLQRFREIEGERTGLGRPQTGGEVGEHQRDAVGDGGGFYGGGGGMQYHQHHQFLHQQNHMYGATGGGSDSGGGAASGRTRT

Measured: binding

B1: ABA BINDING FACTOR 3 (ABF3), full length (protein, UniProt Q9M7Q3 1-454)
chain: MGSRLNFKSFVDGVSEQQPTVGTSLPLTRQNSVFSLTFDEFQNSWGGGIGKDFGSMNMDELLKNIWTAEESHSMMGNNTSYTNISNGNSGNTVINGGGNNIGGLAVGVGGESGGFFTGGSLQRQGSLTLPRTISQKRVDDVWKELMKEDDIGNGVVNGGTSGIPQRQQTLGEMTLEEFLVRAGVVREEPQPVESVTNFNGGFYGFGSNGGLGTASNGFVANQPQDLSGNGVAVRQDLLTAQTQPLQMQQPQMVQQPQMVQQPQQLIQTQERPFPKQTTIAFSNTVDVVNRSQPATQCQEVKPSILGIHNHPMNNNLLQAVDFKTGVTVAAVSPGSQMSPDLTPKSALDASLSPVPYMFGRVRKTGAVLEKVIERRQKRMIKNRESAARSRARKQAYTMELEAEIAQLKELNEELQKKQVEIMEKQKNQLLEPLRQPWGMGCKRQCLRRTLTGPW
no binding: all assays above
